Data published in publication PMC12185749.
No constants are given. Whether binding was seen depends on the method and setting. In cells and extracts the contact can be indirect. Some results given as binding are weak or reduced against the parent protein; the word gives no strength. Tags and fused reporters may be left off the sequences shown.

How the values were obtained:
CLPTM1L-HA = target: T1, CLPTM1L-HA (UniProt Q96KA5); assay: co-IP; NPC cells with CLPTM1L-HA and ERLIN2-Flag; forward and reverse immunoprecipitation; lysate incubated overnight with antibody, Protein A/G magnetic beads 4 h at 4 °C, washed three times with lysis buffer, western blot
T1 sequence: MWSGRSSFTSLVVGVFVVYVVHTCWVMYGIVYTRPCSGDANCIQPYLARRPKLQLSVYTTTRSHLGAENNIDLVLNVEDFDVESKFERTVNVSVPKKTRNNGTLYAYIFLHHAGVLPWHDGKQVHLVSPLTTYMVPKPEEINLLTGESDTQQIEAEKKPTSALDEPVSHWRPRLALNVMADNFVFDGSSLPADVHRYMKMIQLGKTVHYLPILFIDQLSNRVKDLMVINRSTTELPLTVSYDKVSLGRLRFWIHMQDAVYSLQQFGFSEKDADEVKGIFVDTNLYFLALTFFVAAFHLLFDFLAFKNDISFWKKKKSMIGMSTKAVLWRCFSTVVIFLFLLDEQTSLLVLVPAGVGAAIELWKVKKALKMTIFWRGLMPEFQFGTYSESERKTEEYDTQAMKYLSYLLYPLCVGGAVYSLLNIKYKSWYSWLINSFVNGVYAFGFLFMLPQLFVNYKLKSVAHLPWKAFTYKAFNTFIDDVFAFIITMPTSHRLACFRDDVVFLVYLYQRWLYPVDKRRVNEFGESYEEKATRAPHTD

ERLIN2-Flag = target: T2, ERLIN2-Flag (UniProt O94905); assay: as above
T2 sequence: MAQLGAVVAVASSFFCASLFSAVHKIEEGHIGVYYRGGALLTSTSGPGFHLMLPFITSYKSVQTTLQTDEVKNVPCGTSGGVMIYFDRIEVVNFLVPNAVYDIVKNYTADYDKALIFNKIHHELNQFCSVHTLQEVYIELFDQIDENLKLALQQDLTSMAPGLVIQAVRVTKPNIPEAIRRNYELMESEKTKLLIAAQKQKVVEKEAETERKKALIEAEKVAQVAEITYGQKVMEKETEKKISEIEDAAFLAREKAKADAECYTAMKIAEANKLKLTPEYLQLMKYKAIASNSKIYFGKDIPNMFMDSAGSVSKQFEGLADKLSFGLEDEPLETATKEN

wild-type CLPTM1L-HA = target: T3, wild-type CLPTM1L-HA (UniProt Q96KA5); assay: co-IP; 293T cells co-transfected with ERLIN2-FLAG and CLPTM1L-HA (wild type or deletion mutants); immunoprecipitation with anti-HA antibodies, immunoblot
T3 sequence: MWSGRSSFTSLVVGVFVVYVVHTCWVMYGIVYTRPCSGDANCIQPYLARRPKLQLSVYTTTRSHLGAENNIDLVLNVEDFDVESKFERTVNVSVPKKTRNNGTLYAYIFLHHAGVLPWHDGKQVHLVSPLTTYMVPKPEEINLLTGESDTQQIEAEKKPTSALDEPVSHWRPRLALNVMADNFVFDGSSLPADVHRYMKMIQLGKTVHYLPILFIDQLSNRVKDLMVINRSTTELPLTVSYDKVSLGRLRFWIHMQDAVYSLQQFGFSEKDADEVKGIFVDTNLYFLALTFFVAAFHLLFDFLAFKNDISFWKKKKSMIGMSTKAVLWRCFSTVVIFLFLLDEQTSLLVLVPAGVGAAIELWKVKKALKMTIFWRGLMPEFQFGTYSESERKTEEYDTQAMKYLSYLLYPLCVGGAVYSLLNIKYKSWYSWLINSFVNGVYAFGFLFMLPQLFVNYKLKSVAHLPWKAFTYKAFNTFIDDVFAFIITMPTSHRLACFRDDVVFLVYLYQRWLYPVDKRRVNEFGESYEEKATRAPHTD

B1: ERLIN2-Flag (protein, UniProt O94905 1-339)
chain: MAQLGAVVAVASSFFCASLFSAVHKIEEGHIGVYYRGGALLTSTSGPGFHLMLPFITSYKSVQTTLQTDEVKNVPCGTSGGVMIYFDRIEVVNFLVPNAVYDIVKNYTADYDKALIFNKIHHELNQFCSVHTLQEVYIELFDQIDENLKLALQQDLTSMAPGLVIQAVRVTKPNIPEAIRRNYELMESEKTKLLIAAQKQKVVEKEAETERKKALIEAEKVAQVAEITYGQKVMEKETEKKISEIEDAAFLAREKAKADAECYTAMKIAEANKLKLTPEYLQLMKYKAIASNSKIYFGKDIPNMFMDSAGSVSKQFEGLADKLSFGLEDEPLETATKEN
CLPTM1L-HA
  binding: binds

B2: CLPTM1L-HA (protein, UniProt Q96KA5 1-538)
chain: MWSGRSSFTSLVVGVFVVYVVHTCWVMYGIVYTRPCSGDANCIQPYLARRPKLQLSVYTTTRSHLGAENNIDLVLNVEDFDVESKFERTVNVSVPKKTRNNGTLYAYIFLHHAGVLPWHDGKQVHLVSPLTTYMVPKPEEINLLTGESDTQQIEAEKKPTSALDEPVSHWRPRLALNVMADNFVFDGSSLPADVHRYMKMIQLGKTVHYLPILFIDQLSNRVKDLMVINRSTTELPLTVSYDKVSLGRLRFWIHMQDAVYSLQQFGFSEKDADEVKGIFVDTNLYFLALTFFVAAFHLLFDFLAFKNDISFWKKKKSMIGMSTKAVLWRCFSTVVIFLFLLDEQTSLLVLVPAGVGAAIELWKVKKALKMTIFWRGLMPEFQFGTYSESERKTEEYDTQAMKYLSYLLYPLCVGGAVYSLLNIKYKSWYSWLINSFVNGVYAFGFLFMLPQLFVNYKLKSVAHLPWKAFTYKAFNTFIDDVFAFIITMPTSHRLACFRDDVVFLVYLYQRWLYPVDKRRVNEFGESYEEKATRAPHTD
ERLIN2-Flag
  binding: binds

B3: wild-type ERLIN2-FLAG (protein, UniProt O94905 1-339)
chain: MAQLGAVVAVASSFFCASLFSAVHKIEEGHIGVYYRGGALLTSTSGPGFHLMLPFITSYKSVQTTLQTDEVKNVPCGTSGGVMIYFDRIEVVNFLVPNAVYDIVKNYTADYDKALIFNKIHHELNQFCSVHTLQEVYIELFDQIDENLKLALQQDLTSMAPGLVIQAVRVTKPNIPEAIRRNYELMESEKTKLLIAAQKQKVVEKEAETERKKALIEAEKVAQVAEITYGQKVMEKETEKKISEIEDAAFLAREKAKADAECYTAMKIAEANKLKLTPEYLQLMKYKAIASNSKIYFGKDIPNMFMDSAGSVSKQFEGLADKLSFGLEDEPLETATKEN
wild-type CLPTM1L-HA
  binding: binds
